Data taken from PMC4384635, “Autoinhibition of Bruton's tyrosine kinase (Btk) and activation by soluble inositol hexakisphosphate” (eLife, 2015).
No constants are given. Whether binding was seen depends on the method and setting.

Chains of the proteins cited; added tags and fusions are not shown. Lines headed by an entry give the natural chain unless they say otherwise; changes in a name come on top. A line that says so, or that is headed by a name, gives the form on record, which may keep a tag or linker. Residues count along the entry.
full-length bovine Btk (residues 1 to 659) (Q3ZC95, form named): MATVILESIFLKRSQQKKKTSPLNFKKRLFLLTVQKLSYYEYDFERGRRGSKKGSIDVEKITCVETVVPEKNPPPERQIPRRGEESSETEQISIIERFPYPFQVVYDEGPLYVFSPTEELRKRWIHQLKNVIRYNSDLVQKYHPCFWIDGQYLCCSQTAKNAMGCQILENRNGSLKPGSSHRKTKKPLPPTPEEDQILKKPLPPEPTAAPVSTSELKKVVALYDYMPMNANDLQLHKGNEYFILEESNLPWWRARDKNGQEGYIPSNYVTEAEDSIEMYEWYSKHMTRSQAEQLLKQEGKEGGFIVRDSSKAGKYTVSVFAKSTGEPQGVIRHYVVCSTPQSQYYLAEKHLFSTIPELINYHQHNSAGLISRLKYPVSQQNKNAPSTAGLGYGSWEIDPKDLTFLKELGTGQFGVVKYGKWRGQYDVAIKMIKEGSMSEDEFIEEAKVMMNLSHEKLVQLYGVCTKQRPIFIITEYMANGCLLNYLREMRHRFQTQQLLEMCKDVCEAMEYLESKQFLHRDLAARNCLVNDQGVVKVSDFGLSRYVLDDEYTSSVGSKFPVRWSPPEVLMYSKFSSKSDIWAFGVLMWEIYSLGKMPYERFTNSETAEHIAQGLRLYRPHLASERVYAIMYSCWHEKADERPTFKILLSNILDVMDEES

Target: full-length bovine Btk (residues 1 to 659) (bovine) (UniProt Q3ZC95)
Test: SEC + other: multi-angle light scattering; in solution with IP6, Btk concentrations up to 30 μM; both purified

binding: no binding (tested: up to 30 μM)
Substance: full-length bovine Btk (residues 1 to 659) (from UniProt Q3ZC95 1-659) (enzyme)
